Reference: publication PMC9925311
These are yes or no findings as the source states them, for the method shown. In cells and extracts the contact can be indirect. Some binding calls cover weakened binding; strength is not graded here.

Amino acid sequences for entries named in this document (tags omitted). A change or cut given only in a name is not applied to a line headed by its entry.
UniProt P35222: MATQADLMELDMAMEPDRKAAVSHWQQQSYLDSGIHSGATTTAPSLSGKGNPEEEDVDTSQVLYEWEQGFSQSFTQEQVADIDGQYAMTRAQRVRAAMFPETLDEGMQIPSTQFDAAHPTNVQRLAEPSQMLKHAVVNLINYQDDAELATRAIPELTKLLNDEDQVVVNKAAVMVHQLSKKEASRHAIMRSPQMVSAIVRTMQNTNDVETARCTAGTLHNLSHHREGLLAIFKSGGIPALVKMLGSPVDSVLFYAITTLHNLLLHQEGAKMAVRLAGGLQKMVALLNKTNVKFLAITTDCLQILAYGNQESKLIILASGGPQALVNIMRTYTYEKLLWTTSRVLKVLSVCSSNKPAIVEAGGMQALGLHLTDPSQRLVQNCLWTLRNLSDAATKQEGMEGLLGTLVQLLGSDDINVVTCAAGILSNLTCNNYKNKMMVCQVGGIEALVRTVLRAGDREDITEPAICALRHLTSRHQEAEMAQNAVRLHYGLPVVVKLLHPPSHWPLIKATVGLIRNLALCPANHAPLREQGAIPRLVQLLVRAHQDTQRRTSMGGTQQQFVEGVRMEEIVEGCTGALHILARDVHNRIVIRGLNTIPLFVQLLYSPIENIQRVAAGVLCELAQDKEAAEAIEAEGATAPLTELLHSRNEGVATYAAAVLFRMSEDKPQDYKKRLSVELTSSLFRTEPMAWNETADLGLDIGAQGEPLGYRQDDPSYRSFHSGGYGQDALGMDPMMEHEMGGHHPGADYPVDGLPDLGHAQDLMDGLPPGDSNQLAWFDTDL
UniProt Q07832: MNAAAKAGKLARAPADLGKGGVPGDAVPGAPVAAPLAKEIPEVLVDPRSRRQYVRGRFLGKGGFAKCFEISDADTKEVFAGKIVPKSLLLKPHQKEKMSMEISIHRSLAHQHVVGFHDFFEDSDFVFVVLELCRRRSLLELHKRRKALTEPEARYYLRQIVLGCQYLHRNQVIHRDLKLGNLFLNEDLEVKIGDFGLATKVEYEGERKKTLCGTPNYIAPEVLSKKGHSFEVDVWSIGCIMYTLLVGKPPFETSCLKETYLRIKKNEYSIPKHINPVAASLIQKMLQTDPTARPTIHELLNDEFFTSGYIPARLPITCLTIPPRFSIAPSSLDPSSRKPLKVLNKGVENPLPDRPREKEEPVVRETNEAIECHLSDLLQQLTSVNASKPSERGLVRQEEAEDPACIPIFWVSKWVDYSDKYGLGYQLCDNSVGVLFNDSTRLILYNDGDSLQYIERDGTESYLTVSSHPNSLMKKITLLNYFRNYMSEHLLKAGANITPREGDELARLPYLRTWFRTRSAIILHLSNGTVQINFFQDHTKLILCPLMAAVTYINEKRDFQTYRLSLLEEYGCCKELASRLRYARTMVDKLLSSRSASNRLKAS
UniProt P53350: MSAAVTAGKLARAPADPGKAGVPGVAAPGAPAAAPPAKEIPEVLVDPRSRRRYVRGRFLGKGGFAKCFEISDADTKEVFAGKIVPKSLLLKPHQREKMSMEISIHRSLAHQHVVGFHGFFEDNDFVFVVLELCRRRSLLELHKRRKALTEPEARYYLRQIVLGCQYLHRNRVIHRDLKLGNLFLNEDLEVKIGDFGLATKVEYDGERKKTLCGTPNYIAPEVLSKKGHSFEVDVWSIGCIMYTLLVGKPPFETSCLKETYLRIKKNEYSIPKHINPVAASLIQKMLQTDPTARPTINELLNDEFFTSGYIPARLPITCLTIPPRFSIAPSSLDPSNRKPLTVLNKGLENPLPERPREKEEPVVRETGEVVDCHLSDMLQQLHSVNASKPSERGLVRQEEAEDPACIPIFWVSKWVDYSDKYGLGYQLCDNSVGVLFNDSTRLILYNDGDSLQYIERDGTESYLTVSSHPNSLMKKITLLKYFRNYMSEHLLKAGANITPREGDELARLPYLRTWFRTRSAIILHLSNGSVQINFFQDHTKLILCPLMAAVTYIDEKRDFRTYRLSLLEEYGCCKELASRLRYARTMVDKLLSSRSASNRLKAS

How the values were obtained:
[1] = target: GST-tagged β-catenin (human (gene ID 1499)) (UniProt P35222); assay: pull-down; GST-β-catenin on glutathione-sepharose 4B beads incubated with lysates of HEK293T cells expressing Flag-Plk1 forms, 2 h at 4°C; washed four times with cell lysis buffer; blots with anti-Flag and anti-GST; only the target purified
[2] = target: β-catenin, endogenous (human (endogenous in A549 and NCI-H460)) (UniProt P35222); assay: co-IP; lysates of A549 or NCI-H460 cells, with TGF-β (2.5 ng/ml, 48 h) or vehicle; immunoprecipitation with normal IgG, anti-PLK1 or anti-β-catenin, 16 h at 4°C, protein A/G agarose; blots with anti-PLK1 and anti-β-catenin

binding [1] | binding [2] | Substance
binds | – | Flag-tagged C-terminus (a.a. 306-603) of PLK1 (from UniProt Q07832 306-603) (domain or fragment)
no binding | – | Flag-tagged N-terminus (a.a. 1-305) of PLK1 (from UniProt Q07832 1-305) (domain or fragment)
binds | – | Flag-tagged wild-type PLK1 (from UniProt Q07832 1-603)
– | binds | PLK1 (polo-like kinase 1), endogenous (from UniProt P53350 1-603)
